Substitutions are numbered along the chain they refer to. Results are given in words; binding and its absence hold for the method and conditions named. Binding seen in cells or lysates may run through a third protein. Some entries that bind do so weakly or less than the wild type. Tags and fused reporters may be left off the sequences shown.
How the values were obtained:
Assay in all cases: co-IP
[1] = target: T1, Unc93b1 triple-alanine mutant of amino acids 276-278, 3xFLAG-tagged (mouse) (UniProt Q8VCW4)
T1 sequence: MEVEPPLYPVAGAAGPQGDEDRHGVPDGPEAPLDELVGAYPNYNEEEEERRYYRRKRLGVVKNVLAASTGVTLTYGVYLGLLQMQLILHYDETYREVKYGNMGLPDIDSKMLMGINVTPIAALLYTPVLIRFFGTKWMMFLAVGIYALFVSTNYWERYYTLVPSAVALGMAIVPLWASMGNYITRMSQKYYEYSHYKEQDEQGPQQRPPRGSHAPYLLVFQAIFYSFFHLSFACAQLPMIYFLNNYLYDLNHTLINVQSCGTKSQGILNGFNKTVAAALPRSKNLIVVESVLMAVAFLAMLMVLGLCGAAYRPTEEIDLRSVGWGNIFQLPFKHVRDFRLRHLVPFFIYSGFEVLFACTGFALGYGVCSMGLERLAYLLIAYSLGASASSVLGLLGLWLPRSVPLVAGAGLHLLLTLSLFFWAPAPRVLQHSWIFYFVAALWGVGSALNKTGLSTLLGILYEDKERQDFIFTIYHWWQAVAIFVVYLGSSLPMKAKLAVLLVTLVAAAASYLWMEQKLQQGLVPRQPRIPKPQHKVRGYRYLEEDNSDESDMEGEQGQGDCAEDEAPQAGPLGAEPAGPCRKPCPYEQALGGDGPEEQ

[2] = target: T2, Unc93b1 triple-alanine mutant of amino acids 279-281, 3xFLAG-tagged (mouse) (UniProt Q8VCW4)
T2 sequence: T1 sequence with A276L, A277R, A278T, L279A, P280A, R281A

[3] = target: T3, Unc93b1^S282A, 3xFLAG-tagged (mouse) (UniProt Q8VCW4)
T3 sequence: T1 sequence with A276L, A277R, A278T, S282A

[4] = target: T4, Unc93b1^SKN (SKN to AAA at residues 282-284), 3xFLAG-tagged (mouse) (UniProt Q8VCW4)
T4 sequence: T1 sequence with A276L, A277R, A278T, S282A, K283A, N284A

binding [1]: no binding | binding [2]: no binding | binding [3]: binds | binding [4]: binds
B1: TLR9, HA-tagged (receptor, UniProt Q9EQU3 26-1032)
chain: LGTLPAFLPCELKPHGLVDCNWLFLKSVPRFSAAASCSNITRLSLISNRIHHLHNSDFVHLSNLRQLNLKWNCPPTGLSPLHFSCHMTIEPRTFLAMRTLEELNLSYNGITTVPRLPSSLVNLSLSHTNILVLDANSLAGLYSLRVLFMDGNCYYKNPCTGAVKVTPGALLGLSNLTHLSLKYNNLTKVPRQLPPSLEYLLVSYNLIVKLGPEDLANLTSLRVLDVGGNCRRCDHAPNPCIECGQKSLHLHPETFHHLSHLEGLVLKDSSLHTLNSSWFQGLVNLSVLDLSENFLYESITHTNAFQNLTRLRKLNLSFNYRKKVSFARLHLASSFKNLVSLQELNMNGIFFRLLNKYTLRWLADLPKLHTLHLQMNFINQAQLSIFGTFRALRFVDLSDNRISGPSTLSEATPEEADDAEQEELLSADPHPAPLSTPASKNFMDRCKNFKFTMDLSRNNLVTIKPEMFVNLSRLQCLSLSHNSIAQAVNGSQFLPLTNLQVLDLSHNKLDLYHWKSFSELPQLQALDLSYNSQPFSMKGIGHNFSFVTHLSMLQSLSLAHNDIHTRVSSHLNSNSVRFLDFSGNGMGRMWDEGGLYLHFFQGLSGLLKLDLSQNNLHILRPQNLDNLPKSLKLLSLRDNYLSFFNWTSLSFLPNLEVLDLAGNQLKALTNGTLPNGTLLQKLDVSSNSIVSVVPAFFALAVELKEVNLSHNILKTVDRSWFGPIVMNLTVLDVRSNPLHCACGAAFVDLLLEVQTKVPGLANGVKCGSPGQLQGRSIFAQDLRLCLDEVLSWDCFGLSLLAVAVGMVVPILHHLCGWDVWYCFHLCLAWLPLLARSRRSAQTLPYDAFVVFDKAQSAVADWVYNELRVRLEERRGRRALRLCLEDRDWLPGQTLFENLWASIYGSRKTLFVLAHTDRVSGLLRTSFLLAQQRLLEDRKDVVVLVILRPDAHRSRYVRLRQRLCRQSVLFWPQQPNGQGGFWAQLSTALTRDNRHFYNQNFCRGPTAE
